Results: the supplement of paper PMC10689618
Counter-ions that a name gives are not always drawn. Some of the results follow. Many values rest on one well or one pass, so single values are uncertain.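 Primary human fetal astrocytes engulfed labelled rat cortical synaptosomes, measured as a red/green ratio corrected for calcein live-cell signal and scaled to the plate median. Toxicity meant calcein falling over 30%; decreased phagocytosis meant below 70% of median above 5 µM.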

Legend:
Human fetal astrocytes [1] = assay: loss of total cells relative to no-compound high-control median (toxicity); higher = more toxic (fewer cells); conditions: 24 h
Human fetal astrocytes [2] = assay: synaptosome phagocytosis (pHrodo/calcein intensity ratio) relative to plate median of data wells; higher = more phagocytosis; conditions: 24 h

Structure (SMILES) | loss of total cells (Human fetal astrocytes [1]; 1.39 µM) | loss of total cells (Human fetal astrocytes [1]; 2.78 µM) | loss of total cells (Human fetal astrocytes [1]; 5.56 µM) | loss of total cells (Human fetal astrocytes [1]; 11.11 µM) | loss of total cells (Human fetal astrocytes [1]; 22.22 µM) | synaptosome phagocytosis (Human fetal astrocytes [2]; 1.39 µM) | synaptosome phagocytosis (Human fetal astrocytes [2]; 2.78 µM) | synaptosome phagocytosis (Human fetal astrocytes [2]; 5.56 µM) | synaptosome phagocytosis (Human fetal astrocytes [2]; 11.11 µM) | synaptosome phagocytosis (Human fetal astrocytes [2]; 22.22 µM)
O=C(O)c1cc(-c2ccc(F)cc2F)ccc1O | -3.3% | -14.6% | 1.4% | 2% | 17.3% | 111% | 127% | 117% | 117% | 107%
CC(N/C(=N\C#N)Nc1ccncc1)C(C)(C)C (stereo not given) | -15.8% | -22.9% | -6.3% | -18.8% | 4.5% | 117% | 93.1% | 99.3% | 117% | 84.6%
COc1cccc(O)c1O | 17.7% | 24.9% | 36.2% | 53.1% | 63.6% | 93.5% | 119% | 108% | 115% | 59.1%
CC1(C)S[C@@H]2[C@H](N3C(=O)[C@@H](c4ccccc4)NC3(C)C)C(=O)N2[C@H]1C(=O)O | 9.2% | -24.7% | 0.7% | 1.4% | 2.7% | 87.6% | 111% | 114% | 113% | 108%
Cc1cn[nH]c1 [4-Methylpyrazole hydrochloride] | 12.1% | -33.3% | 18% | -11.5% | 5.9% | 133% | 103% | 133% | 72.6% | 76.8%
O=S(=O)(O)c1cc(N=C=S)ccc1/C=C/c1ccc(N=C=S)cc1S(=O)(=O)O | 3.3% | 16.2% | 8.8% | 34.5% | 47.4% | 121% | 129% | 92% | 134% | 174%
COC(=O)c1c(C)cc(O)cc1O | -15.6% | 2% | 29.8% | 1.3% | -13.7% | 86.1% | 114% | 130% | 95.4% | 88.6%
Cc1cc(NS(=O)(=O)c2ccc(N)cc2)no1 | 4.5% | -30.2% | -5.6% | 6.6% | -21% | 130% | 125% | 96.9% | 111% | 94.8%
Nc1ccc(S(=O)(=O)Nc2ccnn2-c2ccccc2)cc1 [Sulfaphenazole] | 9% | 11.9% | 16.7% | -1.3% | 15.2% | 118% | 137% | 108% | 108% | 148%
CC(C)NCC(O)COc1ccc(COCCOC(C)C)cc1 (stereo not given) | -29% | 25.4% | 6.2% | 42.3% | 6.5% | 133% | 172% | 74.9% | 135% | 94.2%
CC(=O)OC1CCC2(C)C3=C(CC[C@H]2C1(C)C)[C@@]1(C)CC[C@@H]([C@@H](C)CCC=C(C)C)[C@]1(C)CC3 (stereo not given in full) | 13.4% | 0.4% | 10.9% | 12.1% | -3% | 101% | 83.3% | 102% | 143% | 87.1%
O=C1CC[C@]23/C=C/C(=O)NCCCCNCCCNC(=O)/C=C/c4ccc(c2c4)O[C@@H]3C1 | 25.7% | 5.3% | -13% | 54.2% | 28.5% | 95.1% | 106% | 95.5% | 125% | 102%
NC(C(=O)O)C(O)C(=O)O (stereo not drawn) [d,l-threo-3-HYDROXYASPARTIC ACID] | -11.5% | -13.4% | 0.7% | 0.7% | 9.6% | 107% | 102% | 76.7% | 99.9% | 125%
CC[C@H](C)C(=O)O[C@H]1C[C@H](O)C=C2C=C[C@H](C)[C@H](CC[C@@H](O)C[C@@H](O)CC(=O)O)[C@H]21 | -11.6% | 16.2% | 17.1% | -23.4% | -1.1% | 94.3% | 98.5% | 96.3% | 139% | 97%
NC(N)=O | -8.6% | -5.1% | -13.2% | -9.5% | 28.9% | 100% | 79.6% | 84.7% | 124% | 101%
C/C(=C(\CCOP(=O)(O)O)SC(=O)c1ccccc1)N(C=O)Cc1cnc(C)nc1N | 17% | -67.5% | 9.4% | 23% | 9.1% | 97.5% | 14.8% | 95% | 100% | 96.8%
COc1c2occc2cc2ccc(=O)oc12 | 6.8% | -1% | 8.4% | -13% | 39.8% | 113% | 113% | 133% | 99.7% | 151%
COc1cc(C/C=C/c2ccccc2)c(OC)cc1O | 6.9% | 17.9% | -12.2% | 37.4% | 6.3% | 119% | 96.3% | 102% | 134% | 115%
Cn1cnc([N+](=O)[O-])c1Sc1ncnc2[nH]cnc12 | 2.5% | -14.3% | 14.1% | -14.8% | 26.1% | 102% | 113% | 123% | 122% | 123%
CN1CCN(C(c2ccccc2)c2ccccc2)CC1 | -10.4% | -21.4% | 3.5% | -2.6% | 23.4% | 113% | 112% | 86.4% | 75% | 103%

Entries of single compounds as entered above. Order of values: loss of total cells (Human fetal astrocytes [1]; 1.39 µM) | loss of total cells (Human fetal astrocytes [1]; 2.78 µM) | loss of total cells (Human fetal astrocytes [1]; 5.56 µM) | loss of total cells (Human fetal astrocytes [1]; 11.11 µM) | loss of total cells (Human fetal astrocytes [1]; 22.22 µM) | synaptosome phagocytosis (Human fetal astrocytes [2]; 1.39 µM) | synaptosome phagocytosis (Human fetal astrocytes [2]; 2.78 µM) | synaptosome phagocytosis (Human fetal astrocytes [2]; 5.56 µM) | synaptosome phagocytosis (Human fetal astrocytes [2]; 11.11 µM) | synaptosome phagocytosis (Human fetal astrocytes [2]; 22.22 µM)
CC(=O)OC1CCC2(C)C3=C(CC[C@H]2C1(C)C)[C@@]1(C)CC[C@@H]([C@@H](C)CCC=C(C)C)[C@]1(C)CC3 (stereo not given in full) is entered as 13.4% | 0.4% | 10.9% | 12.1% | -3% | 101% | 83.3% | 102% | 143% | 87.1%
CN1CCN(C(c2ccccc2)c2ccccc2)CC1 is entered as -10.4% | -21.4% | 3.5% | -2.6% | 23.4% | 113% | 112% | 86.4% | 75% | 103%
